system: NMDA receptor; assay: [3H]MK-801 binding assay, NMDA receptors in guinea pig brain membranes; settings: [3H]MK-801 competition, guinea pig brain membrane preparation
Description: Hartley guinea pigs were sacrificed, and their brains were quickly removed and weighed. The brains then were homogenized in 50 mM Tris HCl buffer, pH 7.7, using a Polytron homogenizer. The homogenate was centrifuged at 40,000×g for 15 min, rehomogenized, and centrifuged again. The final pellet was resuspended in Tris-HCl, pH 7.7, at a final concentration of 6.67 mg original wet weight of tissue/ml. […] The samples were then filtered through glass fiber filters on a Tomtec cell harvester. The filters were washed 3 times with 3 ml of cold buffer. Filters were dried overnight and counted next day on a Wallac Betaplate Reader.
The binding experiments were conducted as follows. […] For each compound, graphs were prepared containing individual competition curves obtained for that compound. IC50 values and Hill coefficients were calculated using the program Prism. Ki values were calculated using the Chang Prusoff transformation: Ki═IC50/(1+L/Kd)
where L is radioligand concentration and Kd is the binding affinity of the radioligand, as determined previously by saturation analysis. […] In each experiment, one standard compound was simultaneously run on each 96 well plate.

**Q.** For `NC12CC3CC4C5CC(CC41)CC2C5C3` [MDT-1, 1-aminodiamantane], which “Hill Slope” value is on record?
**A.** The value was 1.40 ± 0.24.

**Q.** Which “Hill Slope” value does the source give for `OC12CC3CC4C5CC(CC41)CC2C5C3` [MDT-10, 1-hydroxydiamantane] here?
**A.** Its value is 0.54 ± 0.07.

**Q.** How did the “Hill Slope” value turn out when `OC12CC3CC4C1CC1CC2C(C3)C4(O)C1` [MDT-12, 1,6-dihydroxydiamantane] was run?
**A.** Its value is 0.53 ± 0.13.

**Q.** How did the “Hill Slope” value turn out when `O=C(O)C12CC3CC4C5CC(CC41)CC2C5C3` [MDT-17, 1-diamantane carboxylic acid] was run?
**A.** The value was 1.09 ± 0.24.

**Q.** With `O=C(O)C12CC3CC4C1CC1CC2C(C3)C4(C(=O)O)C1` [MDT-19, 1,6-diamantane dicarboxylic acid] as the compound, how does the “Hill Slope” value read?
**A.** Its value is 0.81 ± 0.23.

**Q.** How did the “Hill Slope” value turn out when `CC12CC3CC4C1CC1CC4[C@](N)(C3)C2C1` [MDT-22, 1-methyl-7-aminodiamantane] was run?
**A.** The value was 0.47 ± 0.03.

**Q.** For `CC12CC3CC4C1CC1CC2C(N)(C3)C4(C)C1` (centres unmarked) [MDT-23, 1,6-dimethyl-2-aminodiamantane], which “Hill Slope” value is on record?
**A.** Its value is 0.83 ± 0.00.

**Q.** With `CC12CC3CC(C)(C1)CC(N)(C3)C2` [Memantine, 1-amino-3,5-dimethyladamantane, reference compound] as the compound, how does the “Hill Slope” value read?
**A.** The value was 0.95 ± 0.17.

same assay, conditions: [3H]MK-801 competition, guinea pig brain membranes

**Q.** Which “Hill Slope (standard compounds)” value does the source give for `Cl.NC12CC3CC(CC(C3)C1)C2` [Amantadine, 1-aminoadamantane hydrochloride, reference compound] here?
**A.** Its value is 1.20 ± 0.45 (n = 2).

**Q.** How did the “Hill Slope (standard compounds)” value turn out when `CC12CC3CC(C)(C1)CC(N)(C3)C2` [Memantine, 1-amino-3,5-dimethyladamantane, reference compound] was run?
**A.** Its value is 0.95 ± 0.17 (n = 3).

**Q.** For `CN[C@H](CC(=O)O)C(=O)O` [NMDA, N-methyl-D-aspartate, reference compound], which “Hill Slope (standard compounds)” value is on record?
**A.** Its value is 0.80 ± 0.04 (n = 2).

From patent US20060258748A1 (Chevron U.S.A. Inc., priority 2005, published 2006)
